Measurements published in the supplement of paper PMC10849652.
The list shows a part of the results.

Amino acid sequences for entries named in this document (tags omitted). A change or cut given only in a name is not applied to a line headed by its entry.
UniProt P58004: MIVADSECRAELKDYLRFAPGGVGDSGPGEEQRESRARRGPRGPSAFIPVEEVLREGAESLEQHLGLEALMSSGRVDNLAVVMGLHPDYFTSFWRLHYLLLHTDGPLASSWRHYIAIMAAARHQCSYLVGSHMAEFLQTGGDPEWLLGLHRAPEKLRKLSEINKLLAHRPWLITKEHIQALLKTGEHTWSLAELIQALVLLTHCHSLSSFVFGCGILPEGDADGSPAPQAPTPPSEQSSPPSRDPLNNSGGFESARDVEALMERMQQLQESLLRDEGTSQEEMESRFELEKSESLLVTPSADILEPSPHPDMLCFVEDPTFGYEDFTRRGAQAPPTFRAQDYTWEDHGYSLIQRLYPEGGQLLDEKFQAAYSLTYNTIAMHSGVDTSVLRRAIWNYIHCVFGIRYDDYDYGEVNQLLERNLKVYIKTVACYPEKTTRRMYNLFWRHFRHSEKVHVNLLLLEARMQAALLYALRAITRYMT
UniProt Q9NRX5: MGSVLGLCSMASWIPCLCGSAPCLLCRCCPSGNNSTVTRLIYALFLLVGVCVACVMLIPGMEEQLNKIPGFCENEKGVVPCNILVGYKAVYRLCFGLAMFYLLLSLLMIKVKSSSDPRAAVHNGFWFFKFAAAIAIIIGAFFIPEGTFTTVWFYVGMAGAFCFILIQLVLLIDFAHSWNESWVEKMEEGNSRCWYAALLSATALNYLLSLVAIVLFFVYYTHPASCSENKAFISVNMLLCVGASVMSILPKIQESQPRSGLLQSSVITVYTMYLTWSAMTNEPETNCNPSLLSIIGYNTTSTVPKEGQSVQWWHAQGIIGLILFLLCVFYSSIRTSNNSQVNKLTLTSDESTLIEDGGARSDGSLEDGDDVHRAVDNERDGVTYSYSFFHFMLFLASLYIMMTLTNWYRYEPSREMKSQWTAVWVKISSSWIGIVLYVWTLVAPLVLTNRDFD
UniProt Q0GE19: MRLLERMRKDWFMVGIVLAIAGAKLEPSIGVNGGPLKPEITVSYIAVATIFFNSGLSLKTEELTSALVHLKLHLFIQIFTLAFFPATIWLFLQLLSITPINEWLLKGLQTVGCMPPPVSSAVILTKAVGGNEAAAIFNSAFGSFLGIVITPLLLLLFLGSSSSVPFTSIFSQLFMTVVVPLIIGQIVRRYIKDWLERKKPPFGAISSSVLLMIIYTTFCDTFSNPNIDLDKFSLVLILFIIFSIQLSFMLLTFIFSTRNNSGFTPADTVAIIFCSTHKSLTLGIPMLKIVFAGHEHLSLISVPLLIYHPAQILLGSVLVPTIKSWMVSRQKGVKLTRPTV
UniProt Q9H299: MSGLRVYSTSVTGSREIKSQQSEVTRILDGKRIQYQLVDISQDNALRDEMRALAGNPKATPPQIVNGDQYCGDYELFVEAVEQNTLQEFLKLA
UniProt Q8N6T7, whole entry, looked up: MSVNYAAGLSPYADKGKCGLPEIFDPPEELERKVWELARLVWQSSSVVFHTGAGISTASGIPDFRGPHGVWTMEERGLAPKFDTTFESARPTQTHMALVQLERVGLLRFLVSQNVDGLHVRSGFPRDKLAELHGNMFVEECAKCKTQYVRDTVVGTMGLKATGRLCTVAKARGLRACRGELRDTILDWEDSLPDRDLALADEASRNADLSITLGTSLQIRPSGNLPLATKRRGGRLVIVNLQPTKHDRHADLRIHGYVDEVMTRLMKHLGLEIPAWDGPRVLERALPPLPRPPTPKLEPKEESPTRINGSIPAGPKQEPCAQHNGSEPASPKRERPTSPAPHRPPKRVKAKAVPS
UniProt O75563, whole entry, looked up: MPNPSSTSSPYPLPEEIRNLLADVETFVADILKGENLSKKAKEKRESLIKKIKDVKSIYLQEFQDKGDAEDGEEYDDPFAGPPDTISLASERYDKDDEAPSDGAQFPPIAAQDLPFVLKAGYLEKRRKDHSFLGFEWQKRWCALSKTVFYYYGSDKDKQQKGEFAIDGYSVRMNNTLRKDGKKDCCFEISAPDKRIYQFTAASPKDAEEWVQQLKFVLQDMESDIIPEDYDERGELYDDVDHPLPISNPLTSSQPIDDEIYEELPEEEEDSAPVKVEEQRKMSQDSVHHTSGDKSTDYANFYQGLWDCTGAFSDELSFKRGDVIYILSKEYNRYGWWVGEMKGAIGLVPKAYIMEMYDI
UniProt O95562: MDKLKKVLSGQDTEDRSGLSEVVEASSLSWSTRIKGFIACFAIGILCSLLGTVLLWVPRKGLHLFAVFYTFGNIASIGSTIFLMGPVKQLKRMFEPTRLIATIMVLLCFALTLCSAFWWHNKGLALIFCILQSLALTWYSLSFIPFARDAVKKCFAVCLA
UniProt Q6P4A7: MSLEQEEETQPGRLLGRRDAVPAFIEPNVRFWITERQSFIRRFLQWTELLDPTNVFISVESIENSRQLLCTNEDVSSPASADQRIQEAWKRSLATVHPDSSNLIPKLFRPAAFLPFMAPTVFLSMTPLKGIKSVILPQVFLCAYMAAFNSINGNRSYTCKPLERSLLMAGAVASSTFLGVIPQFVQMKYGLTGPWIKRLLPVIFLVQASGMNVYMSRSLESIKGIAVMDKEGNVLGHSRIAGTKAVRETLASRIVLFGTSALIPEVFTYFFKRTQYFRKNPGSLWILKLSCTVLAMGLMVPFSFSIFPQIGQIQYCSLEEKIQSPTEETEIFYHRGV
UniProt O15047, whole entry, looked up: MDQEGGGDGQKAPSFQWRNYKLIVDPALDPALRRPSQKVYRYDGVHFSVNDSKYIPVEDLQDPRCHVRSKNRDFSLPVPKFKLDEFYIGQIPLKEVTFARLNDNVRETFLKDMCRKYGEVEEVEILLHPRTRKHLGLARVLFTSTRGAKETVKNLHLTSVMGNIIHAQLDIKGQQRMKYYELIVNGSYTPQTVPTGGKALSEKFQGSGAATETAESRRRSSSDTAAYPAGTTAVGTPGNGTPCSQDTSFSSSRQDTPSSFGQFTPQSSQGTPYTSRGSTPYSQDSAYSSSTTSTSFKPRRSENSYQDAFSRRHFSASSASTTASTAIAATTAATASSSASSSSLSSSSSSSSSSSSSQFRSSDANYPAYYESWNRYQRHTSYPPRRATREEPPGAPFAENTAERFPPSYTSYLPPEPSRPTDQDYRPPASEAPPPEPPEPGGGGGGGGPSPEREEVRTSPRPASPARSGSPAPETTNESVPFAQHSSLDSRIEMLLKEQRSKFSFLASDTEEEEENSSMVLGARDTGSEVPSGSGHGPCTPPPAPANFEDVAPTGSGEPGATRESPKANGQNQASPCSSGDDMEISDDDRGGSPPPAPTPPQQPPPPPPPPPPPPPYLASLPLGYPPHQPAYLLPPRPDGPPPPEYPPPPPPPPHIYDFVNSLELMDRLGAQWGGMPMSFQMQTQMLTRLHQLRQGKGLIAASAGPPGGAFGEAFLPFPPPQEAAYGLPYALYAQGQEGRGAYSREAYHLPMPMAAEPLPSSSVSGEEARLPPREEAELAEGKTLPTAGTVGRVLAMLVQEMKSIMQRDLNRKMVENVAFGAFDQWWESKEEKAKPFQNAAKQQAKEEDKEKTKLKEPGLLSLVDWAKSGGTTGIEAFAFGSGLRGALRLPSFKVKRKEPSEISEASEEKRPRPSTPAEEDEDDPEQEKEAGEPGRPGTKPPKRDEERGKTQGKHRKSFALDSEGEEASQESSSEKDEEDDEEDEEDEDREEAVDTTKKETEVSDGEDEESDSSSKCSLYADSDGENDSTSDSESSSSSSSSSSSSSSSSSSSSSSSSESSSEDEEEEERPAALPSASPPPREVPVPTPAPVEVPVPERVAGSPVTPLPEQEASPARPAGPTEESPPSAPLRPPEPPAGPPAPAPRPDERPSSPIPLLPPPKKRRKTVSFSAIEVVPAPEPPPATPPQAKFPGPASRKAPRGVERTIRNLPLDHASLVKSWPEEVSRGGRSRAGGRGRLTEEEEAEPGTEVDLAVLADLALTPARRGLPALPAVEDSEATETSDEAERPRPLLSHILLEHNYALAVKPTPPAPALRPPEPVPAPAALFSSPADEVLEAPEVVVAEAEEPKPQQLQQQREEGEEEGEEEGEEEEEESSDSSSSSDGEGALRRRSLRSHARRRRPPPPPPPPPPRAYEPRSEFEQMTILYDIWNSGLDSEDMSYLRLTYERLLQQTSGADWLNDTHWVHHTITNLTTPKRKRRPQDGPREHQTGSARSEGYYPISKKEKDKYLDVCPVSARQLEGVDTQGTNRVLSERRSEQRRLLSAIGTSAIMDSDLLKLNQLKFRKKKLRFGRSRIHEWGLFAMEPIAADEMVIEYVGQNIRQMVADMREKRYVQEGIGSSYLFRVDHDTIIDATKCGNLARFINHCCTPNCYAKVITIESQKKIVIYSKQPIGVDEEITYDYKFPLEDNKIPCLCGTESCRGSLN
UniProt Q96ES7: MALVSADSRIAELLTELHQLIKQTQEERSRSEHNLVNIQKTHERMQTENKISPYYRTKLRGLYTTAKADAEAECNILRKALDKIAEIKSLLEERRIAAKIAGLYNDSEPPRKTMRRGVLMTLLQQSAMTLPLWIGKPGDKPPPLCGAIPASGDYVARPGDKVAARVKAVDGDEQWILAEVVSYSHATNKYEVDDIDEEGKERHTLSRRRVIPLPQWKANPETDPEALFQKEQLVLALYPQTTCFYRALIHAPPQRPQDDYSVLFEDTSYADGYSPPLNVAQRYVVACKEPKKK
UniProt Q8WUM9: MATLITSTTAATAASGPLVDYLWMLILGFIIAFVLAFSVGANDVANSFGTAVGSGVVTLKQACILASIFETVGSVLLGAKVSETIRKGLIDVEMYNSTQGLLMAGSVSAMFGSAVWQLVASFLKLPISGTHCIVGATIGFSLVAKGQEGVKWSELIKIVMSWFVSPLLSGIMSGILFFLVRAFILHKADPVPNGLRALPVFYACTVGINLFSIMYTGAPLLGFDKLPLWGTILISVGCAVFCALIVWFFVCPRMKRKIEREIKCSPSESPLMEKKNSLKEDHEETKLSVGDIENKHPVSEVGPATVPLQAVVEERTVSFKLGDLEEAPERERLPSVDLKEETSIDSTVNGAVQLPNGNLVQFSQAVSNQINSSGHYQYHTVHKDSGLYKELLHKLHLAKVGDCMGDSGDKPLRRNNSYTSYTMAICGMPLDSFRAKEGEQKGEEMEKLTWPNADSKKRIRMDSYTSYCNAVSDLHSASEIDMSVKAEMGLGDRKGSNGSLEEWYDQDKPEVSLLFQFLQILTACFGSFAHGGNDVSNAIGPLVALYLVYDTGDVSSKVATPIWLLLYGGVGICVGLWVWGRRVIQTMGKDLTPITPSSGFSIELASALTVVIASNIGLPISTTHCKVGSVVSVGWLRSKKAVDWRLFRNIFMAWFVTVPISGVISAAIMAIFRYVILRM
UniProt Q15758: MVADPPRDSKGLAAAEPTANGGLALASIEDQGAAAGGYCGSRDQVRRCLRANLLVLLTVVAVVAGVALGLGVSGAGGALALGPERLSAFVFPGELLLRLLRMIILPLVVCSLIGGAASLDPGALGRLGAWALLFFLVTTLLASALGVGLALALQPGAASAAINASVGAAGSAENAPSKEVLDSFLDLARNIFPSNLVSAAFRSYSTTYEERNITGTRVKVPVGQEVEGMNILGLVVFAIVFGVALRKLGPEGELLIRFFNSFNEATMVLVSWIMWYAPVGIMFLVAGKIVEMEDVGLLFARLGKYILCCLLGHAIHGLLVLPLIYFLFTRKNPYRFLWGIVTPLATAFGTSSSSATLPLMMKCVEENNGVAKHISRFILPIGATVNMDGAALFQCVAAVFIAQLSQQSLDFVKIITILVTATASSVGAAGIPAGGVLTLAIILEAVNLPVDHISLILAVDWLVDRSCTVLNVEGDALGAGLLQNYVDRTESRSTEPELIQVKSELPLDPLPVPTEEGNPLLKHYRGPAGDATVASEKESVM
UniProt Q15459: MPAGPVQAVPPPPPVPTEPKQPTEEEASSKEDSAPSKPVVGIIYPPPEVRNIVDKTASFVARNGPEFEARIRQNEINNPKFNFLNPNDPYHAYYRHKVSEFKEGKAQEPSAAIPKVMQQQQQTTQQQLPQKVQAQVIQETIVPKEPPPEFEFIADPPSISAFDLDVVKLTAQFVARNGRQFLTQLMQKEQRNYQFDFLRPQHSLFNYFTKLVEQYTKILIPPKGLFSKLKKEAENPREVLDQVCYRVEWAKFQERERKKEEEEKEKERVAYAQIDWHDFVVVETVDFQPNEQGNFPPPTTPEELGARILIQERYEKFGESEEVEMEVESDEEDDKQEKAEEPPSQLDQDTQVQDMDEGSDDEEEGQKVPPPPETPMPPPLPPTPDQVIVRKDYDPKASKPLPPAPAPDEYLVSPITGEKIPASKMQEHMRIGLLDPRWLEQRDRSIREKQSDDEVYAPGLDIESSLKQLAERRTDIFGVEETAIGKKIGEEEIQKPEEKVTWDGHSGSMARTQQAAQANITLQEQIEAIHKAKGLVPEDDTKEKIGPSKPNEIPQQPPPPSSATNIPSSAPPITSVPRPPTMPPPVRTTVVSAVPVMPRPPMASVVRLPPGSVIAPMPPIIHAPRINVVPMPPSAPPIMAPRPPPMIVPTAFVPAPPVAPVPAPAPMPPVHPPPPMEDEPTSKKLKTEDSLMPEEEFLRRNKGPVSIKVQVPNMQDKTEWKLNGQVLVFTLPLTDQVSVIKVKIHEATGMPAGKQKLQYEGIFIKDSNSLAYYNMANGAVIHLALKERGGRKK

Experiments:
Experiment in all cases: log2 fold change, soluble protein after heating vs DMSO (PISA); higher = thermal stabilisation; K562 lysate, 10 uM; active = over 0.2 and 3.5 SD of the protein, either way, in both replicates (recomputed)
[1] = compound: C#Cc1cccc(Nc2ncnc3cc(OCCOC)c(OCCOC)cc23)c1 [erlotinib]
Procedure, shortened: (§1)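 Values give the log-two fold change in thermal stability against solvent controls, from duplicates. Crude K562 extract at 1 mg/mL protein, made by dounce homogenisation in PBS pH 7.4 with 1 mM MgCl2, was treated with 10 μM compound for 30 min. After 3 min heating across 48°C-58°C, aliquots were pooled, adjusted to 0.5% NP-40 at 4°C and centrifuged at 21,000xg for 90 min. The supernatant was measured by TMTpro 16plex LC-MS/MS with channel sums equalised.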

[2] = compound: C/C(=N\NC(=O)C1=CC(=CC=C1)S(=O)(=O)N2CCOCC2)/C3=C(C=CC(=C3)Cl)O
Procedure, shortened: as §1

[3] = compound: C1=CC(=CC=C1C2=NC3=C(N2)C=C(C=C3)C(=O)N)OC4=CC=C(C=C4)Cl
Procedure, shortened: as §1

[4] = compound: C1=CC2=C(C=CC(=C2)/C=C\3/C(=O)NC(=NCC4=CC=CS4)S3)N=C1
Procedure, shortened: as §1

[5] = compound: C1=CC2=NC=CN=C2C=C1/C=C/3\C(=O)NC(=O)S3
Procedure, shortened: as §1

[6] = compound: C1=CC=C(C=C1)C2=NC(=C(N2)C3=CC=NC=C3)C4=CC(=C(C=C4)Cl)O
Procedure, shortened: as §1

[7] = compound: C1=CC=C2C(=C1)C3=NNC4=CC=CC(=C43)C2=O
Procedure, shortened: as §1

[8] = compound: C1CCN(C1)C(=O)NC2=CC=CC(=C2)NC3=NC=C(C(=N3)NCCC4=CN=CN4)Br
Procedure, shortened: as §1

[9] = compound: C1CN(CCC1(CC2=CC=C(C=C2)Cl)N)C3=NC=NC4=C3C=CN4
Procedure, shortened: as §1

[10] = compound: C1COCCN1CCN2C3=CC=CC=C3N=C2NC(=O)C4=CC(=CC=C4)[N+](=O)[O-] [IRAK-1-4 Inhibitor I]
Procedure, shortened: as §1

Measured: log2 fold change

SESN2 (UniProt P58004)
inactive: [1] 0.043 | [2] 0.102 | [3] -0.007 | [4] -0.017 | [5] 0.023 | [6] -0.037 | [7] -0.07 | [8] 0.051 | [9] -0.014 | [10] -0.048

SERBP1 (UniProt Q8NC51)
inactive: [1] 0.001 | [2] -0.022 | [3] 0.011 | [4] 0.032 | [5] -0.03 | [6] 0.034 | [7] 0.048 | [8] -0.004 | [9] -0.065 | [10] -0.015

SERINC1 (UniProt Q9NRX5)
inactive: [1] 0.034 | [2] 0.072 | [3] -0.039 | [4] 0.074 | [5] -0.009 | [6] -0.057 | [7] 0.055 | [8] -0.001 | [9] -0.017 | [10] 0.082

SLC10A7 isoform 1 (UniProt Q0GE19)
inactive: [1] 0.054 | [2] -0.015 | [3] -0.02 | [4] -0.043 | [5] 0.066 | [6] 0.066 | [7] -0.018 | [8] -0.04 | [9] 0.088 | [10] 0.002

SF3B2 (UniProt Q13435)
inactive: [1] -0.01 | [2] -0.041 | [3] 0.025 | [4] -0.028 | [5] -0.011 | [6] -0.001 | [7] -0.048 | [8] -0.024 | [9] 0 | [10] -0.003

SF3B6 (UniProt Q9Y3B4)
inactive: [1] 0.011 | [2] 0.047 | [3] 0 | [4] 0.001 | [5] 0.043 | [6] 0.034 | [7] 0.044 | [8] 0.004 | [9] -0.034 | [10] -0.024

SH3BGRL3 (UniProt Q9H299)
inactive: [1] -0.037 | [2] 0.013 | [3] -0.043 | [4] -0.019 | [5] 0.026 | [6] -0.018 | [7] 0.011 | [8] 0.048 | [9] 0.053 | [10] 0

SETD3 (UniProt Q86TU7)
inactive: [1] -0.045 | [2] 0.04 | [3] 0.005 | [4] 0.014 | [5] -0.039 | [6] 0.019 | [7] -0.007 | [8] -0.026 | [9] -0.018 | [10] -0.059

SIRT6 (UniProt Q8N6T7)
inactive: [1] 0.022 | [2] -0.008 | [3] -0.094 | [4] -0.024 | [5] 0.047 | [6] 0.069 | [7] -0.055 | [8] 0.01 | [9] 0.063 | [10] 0.089

SKAP2 (UniProt O75563)
inactive: [1] 0.02 | [2] -0.013 | [3] -0.016 | [4] -0.021 | [5] -0.034 | [6] -0.006 | [7] -0.011 | [8] -0.034 | [9] 0.022 | [10] 0.014

SHOC2 (UniProt Q9UQ13)
inactive: [1] 0.054 | [2] 0.021 | [3] -0.015 | [4] -0.02 | [5] -0.016 | [6] 0.005 | [7] 0 | [8] 0.013 | [9] -0.003 | [10] 0.007

SFN (UniProt P31947)
inactive: [1] 0.013 | [2] -0.239 | [3] -0.006 | [4] -0.053 | [5] -0.002 | [6] -0.004 | [7] 0.025 | [8] 0.012 | [9] -0.064 | [10] -0.03

SGPP1 (UniProt Q9BX95)
inactive: [1] -0.013 | [2] 0.081 | [3] -0.066 | [4] 0.082 | [5] 0.065 | [6] 0.07 | [7] -0.097 | [8] 0.089 | [9] -0.233 | [10] -0.009

SF1 isoform 6 (UniProt Q15637)
inactive: [1] 0.047 | [2] -0.052 | [3] -0.013 | [4] -0.094 | [5] 0.003 | [6] -0.349 | [7] 0.02 | [8] -0.011 | [9] 0.016 | [10] 0.13

SFT2D2 (UniProt O95562)
inactive: [1] 0.074 | [2] -0.11 | [3] -0.118 | [4] -0.017 | [5] -0.047 | [6] -0.058 | [7] 0.069 | [8] 0.013 | [9] -0.068 | [10] 0.024

SFXN4 (UniProt Q6P4A7)
inactive: [1] 0.01 | [2] 0.036 | [3] 0.064 | [4] 0.056 | [5] -0.045 | [6] -0.012 | [7] 0.075 | [8] -0.02 | [9] 0.05 | [10] 0.033

SERPINH1 (UniProt P50454)
inactive: [1] 0.016 | [2] -0.014 | [3] 0.036 | [4] -0.016 | [5] 0.005 | [6] -0.004 | [7] 0.011 | [8] 0.001 | [9] 0.032 | [10] 0.009

SETD1A (UniProt O15047)
inactive: [1] 0.012 | [2] 0.024 | [3] 0.081 | [4] -0.043 | [5] 0.002 | [6] 0.021 | [7] 0.01 | [8] 0.018 | [9] 0 | [10] 0.01

SGF29 (UniProt Q96ES7)
inactive: [1] 0.039 | [2] -0.003 | [3] 0.035 | [4] 0.004 | [5] -0.019 | [6] -0.028 | [7] -0.141 | [8] -0.053 | [9] 0.031 | [10] -0.024

SLC20A1 (UniProt Q8WUM9)
inactive: [1] 0.032 | [2] 0.059 | [3] 0.089 | [4] -0.097 | [5] 0.005 | [6] 0.02 | [7] 0.085 | [8] 0.069 | [9] 0.214 | [10] 0.05

SET isoform 2 (UniProt Q01105)
inactive: [1] -0.004 | [2] -0.029 | [3] 0.027 | [4] -0.052 | [5] 0.016 | [6] -0.004 | [7] 0.024 | [8] 0.027 | [9] 0.006 | [10] 0.006

SERPINI1 (UniProt Q99574)
inactive: [1] -0.003 | [2] -0.021 | [3] -0.037 | [4] 0.027 | [5] 0.054 | [6] -0.007 | [7] -0.117 | [8] 0.029 | [9] 0.038 | [10] 0.031

SFXN2 (UniProt Q96NB2)
inactive: [1] 0.04 | [2] -0.099 | [3] -0.008 | [4] 0.01 | [5] -0.053 | [6] 0.037 | [7] -0.077 | [8] -0.046 | [9] 0.026 | [10] -0.022

SF3A3 (UniProt Q12874)
inactive: [1] -0.007 | [2] 0.037 | [3] -0.033 | [4] 0.014 | [5] 0.054 | [6] 0.011 | [7] -0.027 | [8] -0.028 | [9] 0.03 | [10] -0.033

SLC12A6 (UniProt Q9UHW9)
inactive: [1] -0.014 | [2] -0.073 | [3] -0.047 | [4] 0.013 | [5] -0.006 | [6] -0.028 | [7] -0.01 | [8] -0.024 | [9] 0.068 | [10] -0.01

SLC1A5 (UniProt Q15758)
inactive: [1] -0.009 | [2] -0.013 | [3] 0.013 | [4] 0.002 | [5] -0.002 | [6] -0.012 | [7] 0.034 | [8] -0.001 | [9] 0.017 | [10] 0.015

SHPRH (UniProt Q149N8)
inactive: [1] 0.033 | [2] 0.042 | [3] -0.035 | [4] -0.162 | [5] 0.026 | [6] 0.022 | [7] 0.05 | [8] -0.17 | [9] 0.013 | [10] 0.094

SIDT2 isoform 2 (UniProt Q8NBJ9)
inactive: [1] -0.014 | [2] 0.046 | [3] 0.047 | [4] 0.021 | [5] -0.048 | [6] 0 | [7] -0.035 | [8] 0.012 | [9] 0.026 | [10] 0.061

Two consecutive entries already listed:
SLC12A6 (UniProt Q9UHW9)
inactive: [1] -0.014 | [2] -0.073 | [3] -0.047 | [4] 0.013 | [5] -0.006 | [6] -0.028 | [7] -0.01 | [8] -0.024 | [9] 0.068 | [10] -0.01

SLC1A5 (UniProt Q15758)
inactive: [1] -0.009 | [2] -0.013 | [3] 0.013 | [4] 0.002 | [5] -0.002 | [6] -0.012 | [7] 0.034 | [8] -0.001 | [9] 0.017 | [10] 0.015

Following part

SF3A1 (UniProt Q15459)
inactive: [1] -0.027 | [2] 0.013 | [3] 0.023 | [4] 0.002 | [5] -0.025 | [6] 0 | [7] -0.015 | [8] 0.008 | [9] -0.001 | [10] 0

SERINC3 (UniProt Q13530)
inactive: [1] 0.068 | [2] 0.145 | [3] 0.065 | [4] 0.073 | [5] 0.021 | [6] -0.02 | [7] -0.101 | [8] -0.03 | [9] 0.024 | [10] 0.018
